In PMC12419110:
Results are given in words; binding and its absence hold for the method and conditions named. Binding seen in cells or lysates may run through a third protein. Some results given as binding are weak or reduced against the parent protein; the word gives no strength. Where a sequence is shown, tags or fusion partners need not be part of it.

Legend:
Assay in all cases: co-IP; anti-HA magnetic beads (50 ug) with 2 mg lysate of motor neuron cultures overnight at 4 C; lysis in 20 mM Tris pH 7.5, 150 mM NaCl, 1 mM EDTA, 1 mM EGTA, 1% Triton X-100; washed with PBS-Tween; immunoblot for NEK1, SPATA7 and FBXO3, densitometry normalised to HA
[1] = molecular target: T1, HA tagged wild-type mouse Cfap410 (249aa isoform, endogenous knock-in) (mouse) (UniProt Q8C6G1)
T1 sequence: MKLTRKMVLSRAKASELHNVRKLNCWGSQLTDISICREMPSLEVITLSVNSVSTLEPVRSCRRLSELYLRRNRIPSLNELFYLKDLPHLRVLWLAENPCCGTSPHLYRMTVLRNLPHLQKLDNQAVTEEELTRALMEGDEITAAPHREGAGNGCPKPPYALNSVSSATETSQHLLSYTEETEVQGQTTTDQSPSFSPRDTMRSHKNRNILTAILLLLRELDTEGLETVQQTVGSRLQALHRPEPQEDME

[2] = molecular target: T2, HA tagged R73P variant of mouse Cfap410 (endogenous knock-in) (mouse) (UniProt Q8C6G1)
T2 sequence: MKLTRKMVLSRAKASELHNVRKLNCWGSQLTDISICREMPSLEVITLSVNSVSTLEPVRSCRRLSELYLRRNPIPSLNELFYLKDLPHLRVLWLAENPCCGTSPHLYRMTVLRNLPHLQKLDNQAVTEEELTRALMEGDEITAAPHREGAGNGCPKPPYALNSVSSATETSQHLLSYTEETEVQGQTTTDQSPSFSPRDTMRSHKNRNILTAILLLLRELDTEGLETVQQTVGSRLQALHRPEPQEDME

[3] = molecular target: T3, HA tagged V20M variant of mouse Cfap410 (endogenous knock-in) (mouse) (UniProt Q8C6G1)
T3 sequence: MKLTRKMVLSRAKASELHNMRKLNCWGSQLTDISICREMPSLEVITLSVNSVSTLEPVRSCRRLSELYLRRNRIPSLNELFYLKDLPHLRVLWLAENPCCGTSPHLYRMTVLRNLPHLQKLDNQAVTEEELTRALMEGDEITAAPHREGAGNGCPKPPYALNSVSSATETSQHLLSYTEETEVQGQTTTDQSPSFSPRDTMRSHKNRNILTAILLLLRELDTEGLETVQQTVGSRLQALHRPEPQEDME

Measured: binding

B1: SPATA7 (protein, UniProt Q80VP2 1-582)
chain: MDGSRRVRATSVLPRYSPPCLFTGHLSTKSNAFCTDSSSLRLSTLQLVKNHMAIHYNKILSAKAAVDCSIPVSVNTSIKYADQQRREKLRKELARCEKEFKLSKSAMQTNSKMNSKFFVNSLQKPSGEPQDQDVFIEEMTRYPSFSKSLIPSSEGLHLSLPESSKMLMSGTQKHASTSPSRHSGCGHGCDRRPRSAHQFQVALAKTPSGDLLEKHSDLFSNKQSPFTPRTLKTEAKSFLSQYRYYTPAKRRKDFSDQRMEAETQTELSSFNSELGTAEKTSSKDSEVNINQVPNYTRNGAEDKIAPLPSQGQNLAWDSIQDGILQQSSERASCKLSTEFSPDSKIYSDEEELLYLSFMENVTDEILKLGLFSNRFLERLFERHIKKNKHHLEEGKMRYLLHGLKVDLGCISEEDPAKQKHFRMLNQLHFQKALISRENEFVSDEETVSHHERQQYQEALDMLSAVPKDENKMFSLPGEFLIPAHKVKHSEGVIIQQVNDETDNEASPWNENNPSVSDSVIDQETSVDVIEGDSDFERAETSRELCCLSTSLSPSGPFPSINGGSNHGKELSTLRIMGMSIED
binds: all assays above

B2: FBXO3 (protein, UniProt Q9DC63 1-480)
chain: MAAVEAETGLLTLESLPTDPLLLILSFVDYRDLINCCYVSRRLSQLSTHDPLWRRHCKKYWLISEEEKAGKSQCWRSLFIETYSDVGRYIDHYAAIKKAWRDLKKYLEPRCPRMVLSLKEGAREEDLDAVEAQIGCKLPDDYRCSYRIHNGQKLVVPGLLGSMALSNHYRSEDLLDVDTAAGGFQQRQGLKYCLPLTFCIHTGLSQYIAVEAAEGRNKNEVFYQCPDQMARNPAAIDMFIIGATFTDWFTSYVNNVVSGGFPIIRDQIFRYIHDPECVATTGDITVSVSTSFLPELSSVHPPHYFFTYRIRIEMSRDALPEKACQLDSRYWRITNAKGDVEEVQGPGVVGEFPIISPGRIYEYTSCTTFSTTSGYMEGYYTFHFLYFKDKVFNVAIPRFHMACPTFRVSIARLEMGPDEYEEMEEEAEEEEEEENDDSADMDESDESDADENESDEGEGEARRRRVFDVPIRRRRCSRLF
binds: all assays above

B3: never in mitosis gene A related kinase 1 (NEK1) (protein, UniProt P51954 1-1203)
chain: MEKYVRLQKIGEGSFGKAVLVKSTEDGRHYVIKEINISRMSDKERQESRREVAVLANMKHPNIVQYKESFEENGSLYIVMDYCEGGDLFKRINAQKGALFQEDQILDWFVQICLALKHVHDRKILHRDIKSQNIFLTKDGTVQLGDFGIARVLNSTVELARTCIGTPYYLSPEICENKPYNNKSDIWALGCVLYELCTLKHAFEAGNMKNLVLKIISGSFPPVSPHYSYDLRSLLSQLFKRNPRDRPSVNSILEKGFIAKRIEKFLSPQLIAEEFCLKTLSKFGPQPLPGKRPASGQGVSSFVPAQKITKPAAKYGVPLTYKKYGDKKLLEKKPPPKHKQAHQIPVKKMNSGEERKKMSEEAAKKRRLEFIEKEKKQKDQIRFLKAEQMKRQEKQRLERINRAREQGWRNVLRAGGSGEVKASFFGIGGAVSPSPCSPRGQYEHYHAIFDQMQRLRAEDNEARWKGGIYGRWLPERQKGHLAVERANQVEEFLQRKREAMQNKARAEGHVVYLARLRQIRLQNFNERQQIKAKLRGENKEADGTKGQEATEETDMRLKKMESLKAQTNARAAVLKEQLERKRKEAYEREKKVWEEHLVARVKSSDVPLPLELLETGGSPSKQQVKPVISVTSALKEVGLDGSLTDTQEEEMEKSNSAISSKREILRRLNENLKAQEDEKEKQHHSGSCETVGHKDEREYETENAISSDRKKWEMGGQLVIPLDAVTLDTSFSATEKHTVGEVIKLDSNGSPRKVWGKNPTDSVLKILGEAELQLQTELLENTSFKSEVYAEEENYKPLLTEEENLQCISKEINPSATVDSTETKSPKFTEVSPQMSEGNVEEPDDLETEVLQEPSSTHTDGSLPPVLNDVWTREKEAAKETELEDKVAVQQSEVCEDRIPGNVDQSCKDQRDPAVDDSPQSGCDVEKSVQPESIFQKVVHSKDLNLVQAVHCSPEEPIPIRSHSDSPPKTKSKNSLLIGLSTGLFDANNPKMLRTCSLPDLSKLFRTLMDVPTVGDVHQDSLEIDELEDEPIKEGPSDSEDTVFEETDTDLQELQASMEQLLREQPGDEYSEEEESVLKSSDVEQTARGTDAPDEEDNPSSESALNEEWHSDNSDAETTSECEYDSVFNHLEELRLHLEQEMGFEKFFEVYEKVKAIHEDEDENIEICSTIVENILGNEHQHLYAKILHLVMADGAYQEDNDE
binds: all assays above
